Data as given in PubChem BioAssay AID504764 (Drosophila RNAi Screening Center, 2011)
In all, the deposit lists about 22,000 reagents; this is a random part of those with a known target gene and a result. In the full data, 403 (1.9%) got an active call. 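Unnormalised raw counts per well; ratio z-scores behind the hit calls and whether each hit raises or lowers signal are not deposited.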 Reagents against one gene are numbered here. Names joined by + are all predicted targets of the reagent. Not stated in the record: the amount of reagent.

- Aim: 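Knock-downs that raise or lower a Notch target reporter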 (primary screen)
- Cell system: Drosophila Kc167 cells
- Reagents: long dsRNA against Drosophila genes
- Timing: about 5 days (4 days dsRNA, then 24 h after transfection)
- Challenge: transfection of constitutively active membrane-tethered Notch lacking the extracellular domain, read 24 h later
- Measured: 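Firefly luciferase from an E(spl)m3 reporter with active Notch, plus control-promoter and uninduced reporter wells for normalisation; unnormalised counts, duplicate wells a and b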
- Direction: induced reporter light, run 1, well a and induced reporter light, run 1, well b: higher = more light from the Notch target reporter with active Notch; control promoter light, run 1, well a and control promoter light, run 1, well b: higher = more light from the viral control promoter (cell number, transfection, viability); uninduced reporter light, run 1, well a: higher = more light from the Notch target reporter without active Notch
- Rule for the call: 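Hit if the duplicate-averaged log2 ratio of induced to control-promoter light gives a plate-wise z beyond ±2, or induced to uninduced beyond ±1.8; weak-control or discordant-duplicate wells dropped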
- Meaning of the calls: active = modifier hit (raised or lowered Notch signal); inactive = not a hit

gene	dsRNA no.	induced reporter light, run 1, well a	induced reporter light, run 1, well b	control promoter light, run 1, well a	control promoter light, run 1, well b	uninduced reporter light, run 1, well a	outcome
CG3744	1	1.63e5	1.34e5	2.20e5	1.85e5	11375	inactive
yellow-f	1	3.21e5	3.16e5	2.63e5	2.93e5	24250	inactive
CG17217	1	1.25e5	1.29e5	1.36e5	1.34e5	10015	inactive
Atg5	1	2.20e5	1.78e5	2.60e5	2.07e5	13950	inactive
hlk	1	2.40e5	2.03e5	1.92e5	1.99e5	15265	inactive
hlk	2	1.73e5	1.73e5	1.64e5	1.44e5	12120	inactive
CG3306	1	97365	82105	88075	46045	11170	inactive
CG13561	1	1.63e5	1.58e5	1.45e5	1.57e5	12650	inactive
CG31109	1	1.49e5	1.83e5	2.31e5	1.93e5	14370	inactive
ThrRS	1	1.91e5	1.42e5	1.52e5	1.78e5	13780	inactive
modSP	1	2.70e5	2.79e5	2.40e5	2.49e5	19995	inactive
modSP	2	2.42e5	2.52e5	2.65e5	2.52e5	16275	inactive
PIG-H + Kmn2	1	2.17e5	1.70e5	2.20e5	2.20e5	15190	inactive
loqs	1	1.16e5	1.52e5	1.74e5	1.90e5	11930	inactive
CG6012	1	1.32e5	1.39e5	1.47e5	1.73e5	11835	inactive
CG9284 (retired record)	1	76190	86595	62335	95070	8390	inactive
CG9284 (retired record)	2	1.34e5	1.11e5	90510	1.03e5	8160	inactive
Gga	1	1.30e5	1.42e5	2.02e5	1.65e5	12165	inactive
tsh	1	47945	46865	46275	57600	3690	inactive
CG1387	1	3.01e5	2.06e5	3.12e5	2.92e5	19478	inactive
CG13337	1	1.09e5	1.12e5	1.47e5	1.38e5	8892	inactive
Obp56e	1	83435	78355	1.19e5	81785	9550	inactive
Tep1	1	94570	1.24e5	1.51e5	1.52e5	8835	inactive
Meltrin	1	1.64e5	1.76e5	1.24e5	1.22e5	11012	inactive
CG7523	1	27135	32685	27685	27075	3075	inactive
CG12885	1	61705	43540	68880	74885	9165	inactive
salto	1	1.58e5	1.42e5	1.63e5	1.76e5	14625	inactive
CG11529	1	1.43e5	1.35e5	2.38e5	1.42e5	6755	inactive
Chc	1	1.47e5	1.36e5	1.70e5	1.67e5	9295	inactive
Tcs6 + PIG-P	1	1.64e5	1.69e5	1.87e5	2.04e5	14315	inactive
Tcs6 + PIG-P	2	1.53e5	1.39e5	1.71e5	1.89e5	11225	inactive
CG16775	1	2.38e5	2.25e5	2.80e5	2.40e5	11440	inactive
spict	1	2.23e5	2.37e5	1.79e5	1.97e5	15425	inactive
CG3631	1	1.85e5	1.72e5	1.30e5	1.20e5	12738	inactive
CG32829	1	1.09e5	90300	1.32e5	1.28e5	7425	inactive
jeb	1	85380	93130	1.52e5	1.43e5	10745	inactive
jeb	2	79000	93030	1.46e5	1.55e5	11435	active
myo	1	1.65e5	2.01e5	2.23e5	2.12e5	12905	inactive
Cul3	1	1.28e5	1.15e5	66010	68495	11085	inactive
Cul3	2						inactive
CG11291	1	68065	42150	59790	84210	1825	inactive
Tsp42Ea	1	2.06e5	1.86e5	2.28e5	2.16e5	15480	inactive
Tsp42Ea	2	1.94e5	2.04e5	2.63e5	2.27e5	15205	inactive
GM130	1	87955	1.07e5	74080	79265	5815	inactive
MFS1	1	2.12e5	2.16e5	1.89e5	1.74e5	14670	inactive
gry	1	1.65e5	1.48e5	1.88e5	1.85e5	11355	inactive
gry	2	1.07e5	1.02e5	99905	24190	11235	inactive
d-cup	1	1.01e5	1.21e5	99660	1.02e5	6560	inactive
Elba1	1	1.79e5	1.98e5	2.00e5	1.65e5	13340	inactive
Orc1	1	1.80e5	1.76e5	2.30e5	1.98e5	10830	inactive
